A word on the AC50: it is the midpoint of the concentration-response curve, whichever way the signal moves.

Some of the results follow. Further columns of the screen follow, without active or inactive calls. The list favours compounds with an active or inconclusive main result. Words in brackets tell the shape of the fitted curve; partial curves, single points and poor fits give uncertain potencies.

The results in this text go back to PubChem BioAssay AID662 (National Center for Advancing Translational Sciences (NCATS), 2007).

The experiment in a line: Cell signaling CRE-BLA (Fsk stim). The settings on record: CHO CRE-bla reporter (cAMP response element driving beta-lactamase), forskolin EC10, beta-lactamase ratio; measured here: 460 nm blue channel. In outline:
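Forskolin analogue NKH 477 at EC10 stimulated CRE-driven beta-lactamase in CHO cells alongside compound dilution series. Beta-lactamase was measured with CCF4, excitation 405 nm, emission ratio 460/530 nm.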
Regarding `Cc1csc2nc(=O)c3ccccc3n12`, the AC50 is 5.01 µM [falling, single point].

For the molecule `Nn1c(SCc2cn3ccsc3n2)nnc1-c1ccncc1`, the AC50 was 5.01 µM [falling, single point].

Regarding `CCCn1c(C)nc2c(NCCOC)nc(C)nc21`, the AC50 is 12.6 µM [rising, partial curve].

Consider `Cc1ccc(-c2nnnn2CS(=O)(=O)c2ccccc2)cc1`, for which the AC50 was 0.1 µM [falling, partial curve, poor fit].

Consider `COCCNC(=O)C(c1cccs1)N(C(=O)Cn1nnc2ccccc21)c1ccc2c(c1)OCO2` (centres undefined), for which the AC50 is 0.316 µM [falling, partial curve].

For the molecule `CCOc1cc(NC(=O)c2ccco2)c(OCC)cc1NC(=O)CCc1ccccc1OC`, the concentration at half-maximal activity (AC50) was 12.6 µM [rising, partial curve].

Turning to `CNc1nc2sc3c(c2c(=O)n1C)CC(C)(C)SC3`, the AC50 is 12.6 µM [rising, single point].

On to `COc1ccc(C(=O)NCc2nc3ccccc3[nH]2)cc1OC`, for which the AC50 was 10 µM [rising, single point].

For the molecule `Cn1c(SCc2nnc(-c3ccccc3Br)o2)nc2sc3c(c2c1=O)CCC3`, the AC50 was 3.98 µM [rising, full curve, poor fit].

For the molecule `N#Cc1nc(COc2ccc(F)cc2)oc1N1CCC(Cc2ccccc2)CC1`, the AC50 is 0.794 µM [rising, full curve].

Consider `O=C(CSc1ncn[nH]1)NC1CC2CCC1C2` (centres undefined), for which the AC50 is 0.00398 µM [falling, full curve, poor fit].

`COc1ccc(OC)c(CN2CCN(c3ccccc3OC)CC2)c1`: the AC50 was 0.00316 µM [falling, full curve].

Consider `Cc1cc(NC(=O)c2cccc(S(=O)(=O)N3CC(c4ccccc4)CC3=O)c2)no1` (centres undefined), for which the AC50 is 10 µM [falling, single point].

On to `CCn1c(SCC(=O)O)nnc1-c1cc2c(C)nn(-c3ccccc3)c2s1`, for which the AC50 was 15.8 µM [rising, single point].

As to `COC(=O)c1cccc(C(=O)Nc2ccc(C)cc2)n1`, the AC50 was 0.316 µM [falling, full curve].

For the molecule `O=C(C1=C(O)C(=O)N(CCN2CCOCC2)C1c1ccccc1)c1cccs1` (centres undefined), the AC50 is 25.1 µM [rising, single point].

Consider `CC(C)OCCCn1c(=NC(=O)c2ccncc2)c(C#N)cc2c(=O)n3ccccc3nc21`, for which the AC50 was 10 µM [rising, partial curve].

In the case of `O=C(c1ccco1)N1CCN(C(c2ccccc2)c2nnnn2Cc2cccs2)CC1` (centres undefined), the AC50 is 3.16 µM [rising, single point].

As to `CCN(CC)S(=O)(=O)c1ccc(-c2nnc(SCc3nnc(-c4ccccc4)o3)o2)cc1`, the AC50 was 5.01 µM [rising, single point].

As for `COc1ccc(C2(C(=O)O)CCCC2)cc1`, the AC50 was 25.1 µM [rising, single point].

As for `COc1ccc(-c2ccc(-c3noc(-c4ccccc4OC)n3)c(OC)n2)cc1`, the AC50 was 7.94 µM [rising, partial curve].

On to `O=C1CC(c2ccc3c(c2)OCO3)c2cc3c(cc2N1)OCCO3` (centres undefined), for which the AC50 was 25.1 µM [rising, single point].

As for `CCOc1nc(OCC)nc(N2CCC(C)CC2)n1`, the AC50 is 10 µM [rising, partial curve].

With `Cc1[nH]c2ccc(-c3nnc(SCC(=O)N4CCCc5ccccc54)o3)cc2c1C`, the AC50 was 0.01 µM [falling, full curve, poor fit].

As for `CSc1ccc(-c2c(C#N)c(N)nc3c2c(C)nn3-c2ccccc2)cc1`, the AC50 was 10 µM [rising, partial curve].

`c1ccc2c(c1)CCN(c1ncnc3nc[nH]c13)C2`: the AC50 is 2.51 µM [rising, full curve].

With `O=S(=O)(c1cccc2c(Cl)cccc12)N1CCCNCC1`, the AC50 was 31.6 µM [falling, single point].

Consider `C=C(C)COc1ccc(-c2n[nH]c(C)c2-c2ccccc2)c(O)c1`, for which the AC50 is 31.6 µM [falling, single point].

In the case of `CCOC(=O)C1=C(C)NC(=O)N(C(C)=O)C1c1ccc(Cl)cc1` (centres undefined), the concentration at half-maximal activity (AC50) was 10 µM [falling, partial curve, poor fit].

For the molecule `N#CCCN1CCN(C(=S)c2ccc(-c3ccc(Cl)cc3)o2)CC1`, the AC50 is 12.6 µM [rising, single point].

As for `CCN(CC)CCOc1c(Br)ccc2c1sc1nc3n(c(=O)c12)CCC3`, the AC50 is 10 µM [rising, partial curve].

`COCCn1c(=O)c(C)nc2cnc(Oc3ccc(OC)cc3)nc21`: the AC50 was 12.6 µM [rising, partial curve].

Take `CCOC(=O)CNC(=O)c1nn(-c2ccc(OCC)cc2)c(=O)c2ccccc12`: the AC50 was 10 µM [rising, partial curve].

For the molecule `Cc1oc(-c2ccccc2F)nc1CN1CCC(C(=O)NC2CCCCCCC2)CC1`, the AC50 was 25.1 µM [rising, single point].

`CCOC(=O)c1cnc(-n2cc(C)cn2)nc1Nc1ccccc1OCC`: the AC50 is 3.16 µM [rising, partial curve].

Turning to `O=C(COc1ccc(Cl)cc1)OCC(=O)N1CCCCCC1`, the AC50 was 0.1 µM [falling, single point].

As for `CN(CCc1ccccn1)c1ncnc2[nH]ncc12`, the AC50 is 0.1 µM [falling, single point].

Consider `Cc1cc(Nc2ccccc2Br)n2nc(C)nc2n1`, for which the AC50 is 12.6 µM [rising, partial curve].

On to `O=C(NCc1n[nH]c(=S)n1-c1ccccc1)c1ccco1`, for which the half-maximal activity concentration (AC50) was 0.00398 µM [falling, full curve, poor fit].

As for `CCOc1ccc(CCNC(=O)C2CCN(c3nn4c(=O)cc(C)nc4s3)CC2)cc1`, the AC50 was 20 µM [rising, single point].

`Cc1ccc(C(=O)Nc2cnc3sc(C)nn3c2=O)cc1`: the AC50 is 0.00316 µM [falling, full curve, poor fit].

`COc1ccc(C(=O)CN2CCN(c3ccc(F)cc3)CC2)cc1OC`: the concentration at half-maximal activity (AC50) was 0.00398 µM [falling, full curve, poor fit].

On to `CN(Cc1nc(-c2cccnc2)no1)S(=O)(=O)c1ccc2ccccc2c1`, for which the AC50 was 12.6 µM [rising, single point].

For the molecule `Cc1cc(C(=O)N(C2CCCCC2)C2CCCCC2)no1`, the AC50 was 0.0251 µM [falling, full curve, poor fit].
